PubChem BioAssay AID1259424 | University of Nebraska Medical Center, 2018

- Aim: 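Rank knockdowns across the genome by resemblance to the KSR1 depletion profile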 (primary screen)
- Cells: human HCT116 colon cancer cells
- Reagents: siRNA pool against human genes, 50 nM
- Measurement: 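Six signature mRNAs by branched-DNA multiplex assay, scaled to two housekeeping genes and non-targeting median, log2; matched to mean KSR1 knockdown profile by Pearson correlation and euclidean distance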
- Reading the numbers: mean correlation with KSR1 profile: higher = expression change more like KSR1 knockdown
In all, the deposit lists about 14,000 reagents; this is a part drawn at random. 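Higher correlation or smaller distance means closer resemblance to KSR1 loss; control wells, including KSR1 knockdowns, recur on many plates.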 Further read-outs or replicates are left out here. No sequences are given here. The record does not give: the time to read-out.

| gene knocked down | mean correlation with KSR1 profile |
| --- | --- |
| SPRY3 (sprouty RTK signaling antagonist 3) | -0.255 |
| NCKAP1 (NCK associated protein 1) | -0.775 |
| PDCL (phosducin like) | 0.587 |
| G2E3 (G2/M-phase specific E3 ubiquitin protein ligase) | -0.556 |
| ABRAXAS1 (abraxas 1, BRCA1 A complex subunit) | 0.294 |
| QPCTL (glutaminyl-peptide cyclotransferase like) | 0.387 |
| THOC5 (THO complex subunit 5) | -0.101 |
| PRKCZ (protein kinase C zeta) | 0.255 |
| CDH15 (cadherin 15) | 0.375 |
| TMEM39A (transmembrane protein 39A) | -0.745 |
| NEUROD6 (neuronal differentiation 6) | -0.376 |
| HLA-DQA2 (major histocompatibility complex, class II, DQ alpha 2) | -0.0736 |
| CDIP1 (cell death inducing p53 target 1) | 0.428 |
| PLA2G2A (phospholipase A2 group IIA) | -0.0111 |
| INPP5F (inositol polyphosphate-5-phosphatase F) | 0.0586 |
| BLOC1S6 (biogenesis of lysosomal organelles complex 1 subunit 6) | -0.44 |
| CHRNB4 (cholinergic receptor nicotinic beta 4 subunit) | -0.266 |
| PDPN (podoplanin) | -0.357 |
| FNDC3B (fibronectin type III domain containing 3B) | -0.496 |
| IGLL1 (immunoglobulin lambda like polypeptide 1) | -0.291 |

Looked up above:
NEUROD6 (neuronal differentiation 6), mean correlation with KSR1 profile: -0.376
BLOC1S6 (biogenesis of lysosomal organelles complex 1 subunit 6), mean correlation with KSR1 profile: -0.44
Value for ABRAXAS1 (abraxas 1, BRCA1 A complex subunit) in “mean correlation with KSR1 profile”: 0.294
